Experimental data from US20100310509A1.

Experiments:
[1] = molecular target: OSM-WT ('AGA' modified human Oncostatin M, referred to as wild-type OSM) (human); test: ELISA, OSM-WT coated, soluble LIFR titrated, anti-LIFR detection, O.D at 450 nm
[2] = molecular target: OSM-WT ('AGA' modified human Oncostatin M, referred to as wild-type OSM) (human); test: SPR (SensiQ), OSM-WT immobilised, soluble LIFR injected, 1:1 fit overlaid

binding [1]: binds
binding [2]: binds
B1: soluble human LIFR (leukemia inhibitory factor receptor) (receptor, UniProt P42702 45-833, looked up)
chain: QKKGAPHDLKCVTNNLQVWNCSWKAPSGTGRGTDYEVCIENRSRSCYQLEKTSIKIPALSHGDYEITINSLHDFGSSTSKFTLNEQNVSLIPDTPEILNLSADFSTSTLYLKWNDRGSVFPHRSNVIWEIKVLRKESMELVKLVTHNTTLNGKDTLHHWSWASDMPLECAIHFVEIRCYIDNLHFSGLEEWSDWSPVKNISWIPDSQTKVFPQDKVILVGSDITFCCVSQEKVLSALIGHTNCPLIHLDGENVAIKIRNISVSASSGTNVVFTTEDNIFGTVIFAGYPPDTPQQLNCETHDLKEIICSWNPGRVTALVGPRATSYTLVESFSGKYVRLKRAEAPTNESYQLLFQMLPNQEIYNFTLNAHNPLGRSQSTILVNITEKVYPHTPTSFKVKDINSTAVKLSWHLPGNFAKINFLCEIEIKKSNSVQEQRNVTIKGVENSSYLVALDKLNPYTLYTFRIRCSTETFWKWSKWSNKKQHLTTEASPSKGPDTWREWSSDGKNLIIYWKPLPINEANGKILSYNVSCSSDEETQSLSEIPDPQHKAEIRLDKNDYIISVVAKNSVGSSPPSKIASMEIPNDDLKIEQVVGMGKGILLTWHYDPNMTCDYVIKWCNSSRSEPCLMDWRKVPSNSTETVIESDEFRPGIRYNFFLYGCRNQGYQLLRSMIGYIEELAPIVAPNFTVEDTSADSILVKWEDIPVEELRGFLRGYLFYFGKGERDTSKMRVLESGRSDIKVKNITDISQKTLRIADLQGKTSYHLVLRAYTDGGVGPEKSMYVVTKENS

These are yes or no findings as the source states them, for the method shown. Binding calls can cover weak binding; strength is not graded here.
